The list shows a part of the results. Further columns of the screen follow, without active or inactive calls. The list favours compounds with an active or inconclusive main result. The note in brackets gives the kind of curve behind each potency; many fits are weak.
Assay: qHTS Assay for Lipid Storage Modulators in Drosophila S3 Cells;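 as to cell number change: cells counted by Cell Tracker Red CMTPX staining in the red channel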
Details: BODIPY lipid droplet fluorescence, 18-24 h; for cell number change: measured here: cell count max response, cells fed with added oleic acid
In short: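 Drosophila S3 cells loaded with oleic acid (400 uM, as added) and compounds at several concentrations; lipid droplets imaged by 488-nm laser-scanning cytometry, 500–530 nm intensity and object ratio to cell channel. Percent activity normalized to 20 uM Triacsin C.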

[1] = measured here: lipid fluorescence (Fed channel) AC50, cells fed with added oleic acid
[2] = measured here: cell number channel AC50, cells fed with added oleic acid

**Q.** With `COc1ccc(NC(=O)COC(=O)CO/N=C(\C)c2ccc3c(c2)OCO3)cc1S(N)(=O)=O` as the molecule, how does the cell number change read?
**A.** -4.23%

**Q.** And the AC50 [1]?
**A.** 32.6 µM [rising, single point]

**Q.** With `C=CCn1c(SCc2ccc(C(=O)Nc3ccccc3)cc2)nnc1-c1ccccc1` as the molecule, how does the cell number change read?
**A.** -5.44%

**Q.** And the AC50 [1]?
**A.** 2.91 µM [falling, full curve, poor fit]

**Q.** For `CC(C)(C)OC(=O)N[C@H](/C=C/c1ccccc1)C(=O)OC(C)(C)C`, which cell number change is on record?
**A.** -11.1%

**Q.** What does the source list for `Cc1nnc(SCC(=O)Nc2cccc(S(N)(=O)=O)c2)n1-c1ccccc1`?
**A.** cell number change: 10.3%; AC50 [2]: 0.00517 µM [rising, full curve, poor fit]

**Q.** With `CC(C)C[C@H](NC(=O)OC(C)(C)C)c1nnc(SCc2ccccc2)o1` as the molecule, how does the cell number change read?
**A.** 21.2%

**Q.** What about the AC50 [1] of the same molecule?
**A.** 29.1 µM [rising, single point]

**Q.** For `Cc1cccc(C(=O)NC(=S)Nc2ccc(S(=O)(=O)N3CCCCC3)cc2)c1`, which cell number change is on record?
**A.** -27.2%

**Q.** What about the AC50 [1] of the same molecule?
**A.** 0.58 µM [rising, single point]

**Q.** Which cell number change does the source give for `CCCCN=C(NNc1ccc(Br)cc1)C(=O)OCC` here?
**A.** -27.9%

**Q.** What about the AC50 [1] of the same molecule?
**A.** 14.6 µM [falling, single point]

**Q.** With `O=C(Nc1cc(S(=O)(=O)N2CCOCC2)ccc1N1CCOCC1)c1cc2c(s1)CCC2` as the molecule, how does the cell number change read?
**A.** -9.93%

**Q.** For `CCCC1CC(C)(C(=O)CSc2n[nH]c(-c3ccccc3)n2)OC1=O` (stereo not drawn), which cell number change is on record?
**A.** 33%

**Q.** And the AC50 [2]?
**A.** 13 µM [rising, partial curve]

**Q.** Which cell number change does the source give for `COc1ccc(COC(=O)C2CCN(S(=O)(=O)c3ccc(Cl)cc3)CC2)cc1` here?
**A.** 14.1%

**Q.** Which AC50 [1] does the source give for `Cn1c(=O)c(C(=O)NC2CCCCCCC2)c(O)c2ccccc21` here?
**A.** 0.092 µM [rising, full curve, poor fit]

**Q.** Which cell number change does the source give for `O=C(c1ccc(Cl)cc1)c1ccc(OCC(O)CN2CCOCC2)cc1` (stereo not drawn) here?
**A.** -13.8%

**Q.** For `O=C(COC(=O)CCc1c[nH]c2ccccc12)NCc1ccccc1`, which cell number change is on record?
**A.** -3.41%

**Q.** What about the AC50 [1] of the same molecule?
**A.** 0.366 µM [falling, full curve]

**Q.** With `CC(C)CCN1CC(C(=O)NCc2ccccc2)CC1=O` (stereo not drawn) as the molecule, how does the cell number change read?
**A.** -106%

**Q.** What about the AC50 [1] of the same molecule?
**A.** 29.1 µM [falling, single point]

**Q.** With `COc1ccc(C2=NS(=O)(=O)N(C)C(C(=O)NC3CCCCC3)=C2)cc1` as the molecule, how does the cell number change read?
**A.** 3.75%

**Q.** Which results are given for `CCN(CC)S(=O)(=O)c1ccc(OC)c(NS(=O)(=O)c2ccc(F)cc2)c1`?
**A.** cell number change: -50.6%; AC50 [2]: 4.11 µM [falling, full curve]; AC50 [1]: 5.8 µM [falling, full curve]

**Q.** Which cell number change does the source give for `Cc1cc(NC(=O)NC(=O)c2ccccc2)no1` here?
**A.** -0.348%

**Q.** What about the AC50 [1] of the same molecule?
**A.** 0.112 µM [rising, full curve, poor fit]

**Q.** What does the source list for `CC(=O)c1c(C)nc2ccccn12`?
**A.** cell number change: 0.609%; AC50 [1]: 3.66 µM [falling, single point]

**Q.** For `Cc1cc(C)cc(N(C(=O)CNS(=O)(=O)c2ccccc2)C(C(=O)NCc2ccccc2)c2ccc(C)o2)c1` (stereo not drawn), which cell number change is on record?
**A.** -12.7%

**Q.** What about the AC50 [1] of the same molecule?
**A.** 32.6 µM [falling, single point]

— PubChem BioAssay AID2685 (National Center for Advancing Translational Sciences (NCATS), 2010)
